Experimental data from publication PMC9656839.
No constants are given. Whether binding was seen depends on the method and setting. In cells and extracts the contact can be indirect. These calls come from enrichment with a bait or labelling near it, and not all partners need be listed.

Sequences of proteins named here, by UniProt entry; tags and fusion partners are left off. A change or cut given only in a name is not applied to a line headed by its entry.
UniProt P63101: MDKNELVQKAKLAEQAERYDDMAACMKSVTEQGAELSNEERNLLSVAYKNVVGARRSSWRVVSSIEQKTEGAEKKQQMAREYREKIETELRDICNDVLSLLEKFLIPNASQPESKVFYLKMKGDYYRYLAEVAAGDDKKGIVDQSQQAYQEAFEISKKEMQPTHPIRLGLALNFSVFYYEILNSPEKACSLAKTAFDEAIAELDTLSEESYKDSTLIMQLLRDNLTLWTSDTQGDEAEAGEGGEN
UniProt P09405: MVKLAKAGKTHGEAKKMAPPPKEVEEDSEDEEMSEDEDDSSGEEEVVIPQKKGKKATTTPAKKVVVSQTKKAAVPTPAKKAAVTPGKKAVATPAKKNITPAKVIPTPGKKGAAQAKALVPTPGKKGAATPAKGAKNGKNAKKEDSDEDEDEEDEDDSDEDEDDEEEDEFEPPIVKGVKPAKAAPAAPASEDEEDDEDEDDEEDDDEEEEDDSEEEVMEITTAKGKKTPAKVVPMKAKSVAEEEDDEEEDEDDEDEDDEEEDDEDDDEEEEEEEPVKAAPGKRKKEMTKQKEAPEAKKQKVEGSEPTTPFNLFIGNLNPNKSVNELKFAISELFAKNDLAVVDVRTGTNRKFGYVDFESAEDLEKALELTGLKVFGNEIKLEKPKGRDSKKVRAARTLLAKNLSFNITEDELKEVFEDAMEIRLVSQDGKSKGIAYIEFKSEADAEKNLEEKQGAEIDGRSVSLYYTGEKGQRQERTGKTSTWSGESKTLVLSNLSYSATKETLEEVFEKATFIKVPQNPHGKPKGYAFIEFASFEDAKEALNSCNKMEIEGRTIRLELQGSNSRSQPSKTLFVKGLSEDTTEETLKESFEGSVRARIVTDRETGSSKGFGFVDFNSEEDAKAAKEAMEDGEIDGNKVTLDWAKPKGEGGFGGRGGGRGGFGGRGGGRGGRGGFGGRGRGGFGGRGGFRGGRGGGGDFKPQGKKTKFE

Molecular target: T1, recombinant human PGAM2 (wild type) (human) (UniProt P15259)
T1 sequence: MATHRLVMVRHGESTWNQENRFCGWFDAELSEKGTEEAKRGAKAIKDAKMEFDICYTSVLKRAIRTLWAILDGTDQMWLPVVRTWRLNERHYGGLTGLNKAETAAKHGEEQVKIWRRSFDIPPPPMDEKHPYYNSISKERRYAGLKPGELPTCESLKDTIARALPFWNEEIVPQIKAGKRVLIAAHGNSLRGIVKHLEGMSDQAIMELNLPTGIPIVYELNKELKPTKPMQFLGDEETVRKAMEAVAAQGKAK
Assay: affinity purification with mass spectrometry; recombinant human PGAM2 immobilised on CNBr-activated Sepharose; RNAse-treated nucleolar protein extract of KLN-205 cells run through three times; wash 20 mM TRIS-HCl pH 7.4, 150 mM NaCl; elution with 2 M NaCl; LC-MS/MS, MASCOT score > 90; only the target purified

binding | Substance
binds | 14-3-3ζ/δ (from UniProt P63101 1-245)
binds | nucleolin (from UniProt P09405 1-707)
